Consider one compound from publication PMC11833736 (ACS Pharmacology & Translational Science, 2025).

Assay [1] deals with U-87MG glioblastoma cells. Kind of assay: Cytotoxicity, SRB end-point assay, dark or green light. The conditions noted are these: Homo sapiens, light or radiation study, read-out: EC50,GL.
For another assay, the system named is SH-SY5Y cells. Described as above. The following applies: for EC50: kept in the dark, SRB, normoxic (21% O2). The assay is classed as cell-based.

Structures can show the parent of a compound that is named as a salt. A value given as a limit tells only on which side of the number the result lay.

The term EC50 denotes the midpoint of the concentration-response curve. Consider `COc1cc2c(cc1OC)C(=O)C(CC1CCN(Cc3ccccc3)CC1)C2` (stereo not shown) [donepezil HCl, reference compound], for which the EC50 in assay [1] is more than 100 µM; with SH-SY5Y cells (Homo sapiens), 59 µM; with SH-SY5Y cells, 59.1 µM. Besides, in the assay on SH-SY5Y cells (irradiated with green light), the “impact on cell growth (in words)” value was “had no impact on cell growth”.
